Our source for the binding values is article PMC7916480, “Functional and Structural Characterization of Nucleic Acid Ligands That Bind to Activated Coagulation Factor XIII”.

These are yes or no findings as the source states them, for the method shown. Binding calls can cover weak binding; strength is not graded here.

The assay deals with fibrinogen (Hemocomplettan P). The assay is described as follows: microtiter plate binding assay (bound enzyme read by fluorogenic substrate); fibrinogen (3 uM) coated on maxisorb plates; FXIIIa (25 nM), pre-incubated 30 min at RT with aptamers (1-316 nM), added in binding buffer (D-PBS pH 7.4 with 0.9 mM CaCl2, 0.5 mM MgCl2, 0.1% BSA) for 30 min; washed; bound FXIIIa quantified with fluorogenic substrate; both purified.

B1: activated coagulation factor XIII (FXIIIa), recombinant human (enzyme, UniProt P00488 39-732)
chain: GVNLQEFLNVTSVHLFKERWDTNKVDHHTDKYENNKLIVRRGQSFYVQIDFSRPYDPRRDLFRVEYVIGRYPQENKGTYIPVPIVSELQSGKWGAKIVMREDRSVRLSIQSSPKCIVGKFRMYVAVWTPYGVLRTSRNPETDTYILFNPWCEDDAVYLDNEKEREEYVLNDIGVIFYGEVNDIKTRSWSYGQFEDGILDTCLYVMDRAQMDLSGRGNPIKVSRVGSAMVNAKDDEGVLVGSWDNIYAYGVPPSAWTGSVDILLEYRSSENPVRYGQCWVFAGVFNTFLRCLGIPARIVTNYFSAHDNDANLQMDIFLEEDGNVNSKLTKDSVWNYHCWNEAWMTRPDLPVGFGGWQAVDSTPQENSDGMYRCGPASVQAIKHGHVCFQFDAPFVFAEVNSDLIYITAKKDGTHVVENVDATHIGKLIVTKQIGGDGMMDITDTYKFQEGQEEERLALETALMYGAKKPLNTEGVMKSRSNVDMDFEVENAVLGKDFKLSITFRNNSHNRYTITAYLSANITFYTGVPKAEFKKETFDVTLEPLSFKKEAVLIQAGEYMGQLLEQASLHFFVTARINETRDVLAKQKSTVLTIPEIIIKVRGTQVVGSDMTVTVEFTNPLKETLRNVWVHLDGPGVTRPMKKMFREIRPNSTVQWEEVCRPWVSGHRKLIASMSSDSLRHVYGELDVQIQRRPSM
In the case of B1, the binding entry was “binds”.
